According to US4873334A, “4,7-dihydropyrazolo(3,4-b) pyridine derivatives” (Shionogi & Co., Ltd., priority 1982, dated 1989):

Experiment: in vivo
Conditions: mouse, iv
Experimental: In female DS mice (body weight: about 20g), LD50 value after the intravenous administration of the compounds was calculated by the Brownlee's up and down method [J. Am. Sat. As., 48, 262 (1953)].

SMILES: COC(=O)C1=C(C)NC(C)=C(C(=O)OC)C1c1ccccc1[N+](=O)[O-] [(A), Nifedipine, reference compound]
- LD50: 10.7 mg/kg
